{
  "sequences": {"note": "Protein sequences, listed by entry. Tags and fused reporters are not part of them.", "UniProt Q0JBA9, entry or part of it": "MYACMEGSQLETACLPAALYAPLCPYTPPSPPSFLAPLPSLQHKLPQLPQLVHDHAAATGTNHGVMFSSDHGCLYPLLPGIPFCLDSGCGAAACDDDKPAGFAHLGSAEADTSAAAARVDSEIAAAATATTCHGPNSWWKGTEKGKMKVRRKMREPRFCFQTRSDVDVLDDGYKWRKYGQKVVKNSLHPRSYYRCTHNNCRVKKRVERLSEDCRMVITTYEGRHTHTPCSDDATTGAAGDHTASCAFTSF"},
  "source": "paper PMC7819943",
  "about": "“Rice protein-binding microarrays: a tool to detect cis-acting elements near promoter regions in rice”",
  "note": "The list shows a part of the results.",
  "data": [
    {"target": "OsWRKY34 (Oryza sativa, UniProt Q0JBA9 1-250)", "experiment": "protein-binding microarray (RPBM); PBS, 2% BSA, 51.3 ng/ul salmon testes DNA, 50 uM zinc acetate, 200 nM TF, 25 C, 1 h; high values mean tight binding", "details": "protein: recombinant; tags: N-terminal polyhistidine and DsRed monomer fusion (pET32a); label: CyDye5-dUTP incorporated in the synthesized complementary strand; 3' TTTTT single-stranded linker to array surface; dsDNA, one strand shown", "procedure,_shortened": "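In PBS with 2% BSA, salmon testes DNA and 50 µM zinc acetate, 200 nM protein was incubated on a custom Agilent array at 25 °C for 1 h and then washed off. The array had been made double-stranded by primer extension with Cy5-dUTP and blocked with 2% BSA. The proteins were transcription factors fused N-terminally to polyhistidine and DsRed, expressed in E. coli BL21-CodonPlus and purified on Ni–NTA. The binding signal is per-feature fluorescence intensity (arbitrary units) from an Axon 4000B scanner.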", "values": [
      {"sequence": "TCTTTTTTTTTTTCATTATTGTTTGAATATTGATTTCACACGGAGTCACCTAGTGCAG", "binding signal": "8780 fluorescence intensity (a.u.)"},
      {"sequence": "TTCCCCACGTACCTCTCCATCTCGTCCAGCTTGTAGTTGTCGGAGTCACCTAGTGCAG", "binding signal": "8790 fluorescence intensity (a.u.)"},
      {"sequence": "GATTGTATATGCCTGATAGGACTAGTTAGTGTGTTTTCTTCGGAGTCACCTAGTGCAG", "binding signal": "9220 fluorescence intensity (a.u.)"},
      {"sequence": "TTTCATTATACATATAGTTTTACATATTTCACAAAATTTTCGGAGTCACCTAGTGCAG", "binding signal": "8770 fluorescence intensity (a.u.)"},
      {"sequence": "CACCCGGCCAGCCACACACACACAGAAACAGCTCGAGATCCGGAGTCACCTAGTGCAG", "binding signal": "8510 fluorescence intensity (a.u.)"},
      {"sequence": "CTGGCCGCTATTTTATCTAATGTCAATTCTCCTATATCTACGGAGTCACCTAGTGCAG", "binding signal": "11000 fluorescence intensity (a.u.)"},
      {"sequence": "CCCACGCGTTCCACCCTGATCCTTTGCACTTCCGCGACCTCGGAGTCACCTAGTGCAG", "binding signal": "10800 fluorescence intensity (a.u.)"},
      {"sequence": "GCCAAGCCTTTTTCTTCTACTCTTTTTGGCATGGAACTCACGGAGTCACCTAGTGCAG", "binding signal": "8350 fluorescence intensity (a.u.)"},
      {"sequence": "GGACGGTTGATTCTCCTGCTTGTCTCGCTCGACCGCCGACCGGAGTCACCTAGTGCAG", "binding signal": "8450 fluorescence intensity (a.u.)"},
      {"sequence": "TCATCCGATTCCTATGTTTTTCCTGCGCTCCAATCAAACACGGAGTCACCTAGTGCAG", "binding signal": "12000 fluorescence intensity (a.u.)"},
      {"sequence": "GGCGCTGCAGCACGTACGTGGTTGGTTGGTTGGTTGGTTGCGGAGTCACCTAGTGCAG", "binding signal": "15300 fluorescence intensity (a.u.)"},
      {"sequence": "GTCTTTATCCAACATGACAGCTACTTCCTCCGTTTCATAACGGAGTCACCTAGTGCAG", "binding signal": "8070 fluorescence intensity (a.u.)"},
      {"sequence": "CATGTTTTACGTAAATTGATCAATATTGTGTAGCATCATACGGAGTCACCTAGTGCAG", "binding signal": "8100 fluorescence intensity (a.u.)"},
      {"sequence": "GGGTTCACCACCAAACTCGCCACCTATAAACGCTCCTCGCCGGAGTCACCTAGTGCAG", "binding signal": "9030 fluorescence intensity (a.u.)"},
      {"sequence": "CTCCGCCGCCTCCCGTATAACTGCGCCTTCGTCTCCGGCCCGGAGTCACCTAGTGCAG", "binding signal": "11100 fluorescence intensity (a.u.)"},
      {"sequence": "ACTGAACTGAGAACTGTCCCACCATCATTGTCGCCAGAATCGGAGTCACCTAGTGCAG", "binding signal": "9350 fluorescence intensity (a.u.)"},
      {"sequence": "TTCCCCTTCTACGCTCTCGCATTTGCCATTTCTTTTTTCGCGGAGTCACCTAGTGCAG", "binding signal": "8110 fluorescence intensity (a.u.)"},
      {"sequence": "CTCCTACTGTATTTCTCTACAAGATTGACCACCTTAATACCGGAGTCACCTAGTGCAG", "binding signal": "8600 fluorescence intensity (a.u.)"},
      {"sequence": "ACAACAAATACCTCGATCTCGATCTGTTACTTTCTCGTGACGGAGTCACCTAGTGCAG", "binding signal": "8300 fluorescence intensity (a.u.)"},
      {"sequence": "GATTGTCGTCCTCTTCGGCTCCCATACCGCCGACAACACCCGGAGTCACCTAGTGCAG", "binding signal": "8130 fluorescence intensity (a.u.)"},
      {"sequence": "GTGTGGGTGGCAGGGTGTGTTGAGGAGGTGCCCGCGTTGCCGGAGTCACCTAGTGCAG", "binding signal": "10300 fluorescence intensity (a.u.)"},
      {"sequence": "TTTACGACCAACTGCAAATTCGATCTCCGTCCATCGATATCGGAGTCACCTAGTGCAG", "binding signal": "9180 fluorescence intensity (a.u.)"},
      {"sequence": "TTATAATTATTTGTGTTGCAATGTATGTTTTGTTTATATACGGAGTCACCTAGTGCAG", "binding signal": "8540 fluorescence intensity (a.u.)"},
      {"sequence": "ATTTTTTTCCTTTCAGTGCTTTCACAGCTTCATTTTGCAACGGAGTCACCTAGTGCAG", "binding signal": "8050 fluorescence intensity (a.u.)"},
      {"sequence": "GCAACTGATAGACTAACTTGTCCGGTCCTGTTTTGGAATCCGGAGTCACCTAGTGCAG", "binding signal": "10200 fluorescence intensity (a.u.)"},
      {"sequence": "ACCATGAGGTCTACCCACCTGCGCCCCTACCGCTCAATTCCGGAGTCACCTAGTGCAG", "binding signal": "8320 fluorescence intensity (a.u.)"},
      {"sequence": "GCACGTCCACCAACAAATATTTGTCTTGTTCATCTGTCCTCGGAGTCACCTAGTGCAG", "binding signal": "13500 fluorescence intensity (a.u.)"},
      {"sequence": "TGCACCGAGTCCCGGGGTCATTCTCCCGTTGTGTTTGTTGCGGAGTCACCTAGTGCAG", "binding signal": "8590 fluorescence intensity (a.u.)"},
      {"sequence": "GCATCTCTCTCGGCCTCTAGACTTTCTTTTTGGGCCTGAACGGAGTCACCTAGTGCAG", "binding signal": "9600 fluorescence intensity (a.u.)"},
      {"sequence": "GCTCAAACCTGGACCTGTTTGATCATGGCGTCAGTGCACACGGAGTCACCTAGTGCAG", "binding signal": "8360 fluorescence intensity (a.u.)"},
      {"sequence": "ATCTCTTAACCTTTTTCTTATTACCAAACATGCTAACGGTCGGAGTCACCTAGTGCAG", "binding signal": "8030 fluorescence intensity (a.u.)"},
      {"sequence": "TTTTGTTTCCGACTTTATCGTTTCCAATTTCGTTTCCAAGCGGAGTCACCTAGTGCAG", "binding signal": "9580 fluorescence intensity (a.u.)"},
      {"sequence": "TTCAGTTTGTCAGATCATCTGTCCTTCTACCTTCTTTGCACGGAGTCACCTAGTGCAG", "binding signal": "8600 fluorescence intensity (a.u.)"},
      {"sequence": "CACCTCCGTTCCATGAGCTCCACACTCATCATCCACAGCACGGAGTCACCTAGTGCAG", "binding signal": "9230 fluorescence intensity (a.u.)"},
      {"sequence": "ACTCGCTTTCTCTCTCTCGCGTTGCTTCCTACCGAAATCTCGGAGTCACCTAGTGCAG", "binding signal": "14100 fluorescence intensity (a.u.)"},
      {"sequence": "CACGTACACGCCTCTTTCCTTTACTCTTCTTCTTCTTTCTCGGAGTCACCTAGTGCAG", "binding signal": "10300 fluorescence intensity (a.u.)"},
      {"sequence": "ATTTTCTGTTCCAACTTTTTTTACGGGATTTTCCGATCCGCGGAGTCACCTAGTGCAG", "binding signal": "8090 fluorescence intensity (a.u.)"},
      {"sequence": "TTTTGATTTTATTGTCTAGTACCTCTCTTCAACGTATAGCCGGAGTCACCTAGTGCAG", "binding signal": "8040 fluorescence intensity (a.u.)"},
      {"sequence": "CCGGGCGAGCCGGTCATGTTTGACTCCACACTTGCGCACTCGGAGTCACCTAGTGCAG", "binding signal": "9770 fluorescence intensity (a.u.)"},
      {"sequence": "GGCTGCCCGCTCCTACATCCACATGCATGCTTCACACTGCCGGAGTCACCTAGTGCAG", "binding signal": "8330 fluorescence intensity (a.u.)"},
      {"sequence": "TTTTTCTGGTAGTCTTCTCTTCATCTTTCTTTTTTTGGCTCGGAGTCACCTAGTGCAG", "binding signal": "11400 fluorescence intensity (a.u.)"},
      {"sequence": "TTTTGTGAATGTTACTATTTCTGTATCCTGTTTTGTTTTCCGGAGTCACCTAGTGCAG", "binding signal": "11400 fluorescence intensity (a.u.)"},
      {"sequence": "ACCTTCTTGCAACTTGGCTGCATTACTTTGACAAAGTTTTCGGAGTCACCTAGTGCAG", "binding signal": "10400 fluorescence intensity (a.u.)"},
      {"sequence": "CCCCAACGCACTCTTCCCCGCCGCCGTTTCTGCCTCACTTCGGAGTCACCTAGTGCAG", "binding signal": "13900 fluorescence intensity (a.u.)"},
      {"sequence": "ATTGCATAACGAACTCTACATGACTGTTTTCCATTTAACTCGGAGTCACCTAGTGCAG", "binding signal": "10400 fluorescence intensity (a.u.)"},
      {"sequence": "ACCCTGGGAGGCTCTAACCCATTCCTGAATTTTCCATCTTCGGAGTCACCTAGTGCAG", "binding signal": "8400 fluorescence intensity (a.u.)"},
      {"sequence": "CGAATGCCATCGCCATTGCCTGCCTGCCACCATTGACCGCCGGAGTCACCTAGTGCAG", "binding signal": "11100 fluorescence intensity (a.u.)"},
      {"sequence": "GAATCACTATCACTTTAGTCTTAGTAGCTACATATATAAACGGAGTCACCTAGTGCAG", "binding signal": "8140 fluorescence intensity (a.u.)"},
      {"sequence": "CGTCCGTCCGCGCCTCGCTCTACCCGCACTCCTACGGCGGCGGAGTCACCTAGTGCAG", "binding signal": "8380 fluorescence intensity (a.u.)"},
      {"sequence": "CCTTGCCACCCCTACCGGATCCTGGTGTTGTTGGTTCGATCGGAGTCACCTAGTGCAG", "binding signal": "10200 fluorescence intensity (a.u.)"},
      {"sequence": "CTTGTCCACCAGCTGCCGAATCACCACCACCATCACAACCCGGAGTCACCTAGTGCAG", "binding signal": "8120 fluorescence intensity (a.u.)"},
      {"sequence": "GCCGTCCGCCATCGCTGCTGACCGCAGCATCCGCAGCCACCGGAGTCACCTAGTGCAG", "binding signal": "11900 fluorescence intensity (a.u.)"},
      {"sequence": "TTCAACGTGGTGATTCATTCTCTTCTTTCATGTAATGAAACGGAGTCACCTAGTGCAG", "binding signal": "8610 fluorescence intensity (a.u.)"},
      {"sequence": "CGAGCTGCTGATGGCCCCTATGCCACATCTACTATGCATGCGGAGTCACCTAGTGCAG", "binding signal": "17100 fluorescence intensity (a.u.)"}
    ]}
  ]
}
